From patent publication US20250025576A1, “CELL DELIVERY COMPOSITIONS AND METHODS OF USE THEREOF” (The Regents of the University of California, priority 2021, published 2025)

Legend:
[1] = tested on: erythrocyte-specific BCL11a enhancer locus in CD34+ HSPCs; assay: Cas9-mediated NHEJ at BCL11a enhancer locus, deep sequencing; type: cell-based, human; settings: Cas9-3×NLS RNP, peptide 5 μM or 10 μM, no targeting antibody
[2] = tested on: β2M locus in human primary CD4+ T cells; assay: Peptide screen: Cas9-mediated KO at the β2M locus, flow cytometry; type: cell-based; settings: S. pyogenes Cas9 (one NLS) RNP co-incubated with peptide at 5 μM or 10 μM; compared with INF7-TAT
Protocol: Primary human CD4+ T cells were isolated from leukopacks (purchased from Stemcell Tech or Allcells Inc) PBMCs using negative isolation (Stem Cell Technologies). Cells were either used fresh or stored frozen at −80° C. Cells were suspended in growth media (Xvivo-15+5% FBS+55 μM β-mercaptoethanol (βME)+10 μM N-acetyl cysteine) at 1.0×10^6 cells/mL. Cells were stimulated for 48 hours with CD3/CD28 Dynabeads (Gibco CAT #11131D) at 1 bead/cell ratio, 200 U/mL human IL-2 (Proleukin), 5 ng/ml IL-7 (Peptrotech CAT #200-07), 5 ng/ml IL-15 (Peptrotech CAT #200-15). […] When Cas9 RNP delivery complexes were ready, cells were centrifuged at 300×g, resuspended in OptiMEM and placed in 96-well round-bottom culture plates, with 200×10^3 cells/well. […]
FIG. 3. Screening of peptides 1-37 for Cas9-mediated KO at the β2M locus in human primary CD4+ T cells, as measured by flow cytometry. prA-Cas9-1×NLS with OKT3 was combined with peptides at either 5 μM or 10 μM concentration. […]
FIG. 5A and FIG. 5B. (A) Screening of peptides #40-60 (as well as select comparator peptides from the screen of “parent peptides” #1-37) for Cas9-mediated KO at the ß2M locus in human primary CD4+ T cells, as measured by flow cytometry. prA-Cas9-1×NLS was combined with anti-CD3 antibody OKT3 and applied to cells with peptides at 10 µM concentration. […]

KLFEAIEGFIENGWEGMIDGWYGYGRKKRRQRR [peptide 19, the G1K variant of INF7-TAT]
Cas9-mediated NHEJ at BCL11a enhancer locus (editing efficiency) [1]: edits CD34+ HSPCs much more efficiently than INF7-TAT | Cas9-mediated KO at the β2M locus (editing efficiency) [2]: edits T cells much more efficiently than INF7-TAT
